Three substances from publication doi:10.1101/2021.03.03.433744 can be followed below.

Assay [1] has as its target T1, GST-OsCEBiP (rice (Nipponbare)) (UniProt Q8H8C7).
T1 sequence: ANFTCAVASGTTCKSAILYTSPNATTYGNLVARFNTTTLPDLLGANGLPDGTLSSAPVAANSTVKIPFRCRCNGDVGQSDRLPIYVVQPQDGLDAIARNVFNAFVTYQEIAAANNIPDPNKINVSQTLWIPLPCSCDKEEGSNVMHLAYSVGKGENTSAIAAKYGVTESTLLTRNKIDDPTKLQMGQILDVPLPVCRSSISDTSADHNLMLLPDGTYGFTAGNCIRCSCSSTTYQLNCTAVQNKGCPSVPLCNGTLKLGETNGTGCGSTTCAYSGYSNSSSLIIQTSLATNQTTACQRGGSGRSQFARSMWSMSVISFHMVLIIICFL
Description: pull-down.

The target in assay [2] is T2, GST-OsCERK1 (rice (Nipponbare)).
T2 sequence: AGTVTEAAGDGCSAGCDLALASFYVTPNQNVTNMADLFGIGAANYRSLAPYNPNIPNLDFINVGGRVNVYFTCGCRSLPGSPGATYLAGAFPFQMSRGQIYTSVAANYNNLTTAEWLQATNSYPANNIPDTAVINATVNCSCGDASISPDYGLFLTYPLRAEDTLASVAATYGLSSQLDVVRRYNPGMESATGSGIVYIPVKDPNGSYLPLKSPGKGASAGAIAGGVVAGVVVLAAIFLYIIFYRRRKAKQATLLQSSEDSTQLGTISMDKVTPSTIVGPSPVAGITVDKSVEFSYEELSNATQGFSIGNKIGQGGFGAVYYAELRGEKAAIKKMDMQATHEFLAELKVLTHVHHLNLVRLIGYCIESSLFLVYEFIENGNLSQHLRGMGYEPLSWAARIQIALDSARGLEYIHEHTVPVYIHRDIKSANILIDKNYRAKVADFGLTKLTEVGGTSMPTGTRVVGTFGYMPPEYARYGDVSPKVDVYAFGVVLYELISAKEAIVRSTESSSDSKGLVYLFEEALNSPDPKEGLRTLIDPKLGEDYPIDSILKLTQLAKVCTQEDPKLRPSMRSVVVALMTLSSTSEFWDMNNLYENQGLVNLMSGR
Description: pull-down.

Assay [3] concerns the target T3, OsCEBiP-3×FLAG (rice (Nipponbare)) (UniProt Q8H8C7).
T3 sequence: T1 sequence
Description: co-IP.

In assay [4] the target is T4, OsCERK1-3×FLAG (rice (Nipponbare)).
T4 sequence: T2 sequence
As to the kind of experiment: co-IP.

Results are given in words; binding and its absence hold for the method and conditions named. A result given as binding can be weak or reduced; the word gives no strength. Tags and fused reporters may be left off the sequences shown. For part of these data: Binding seen in cells or lysates may run through a third protein.

Regarding “MBP-UvChi1 (Ustilaginoidea virens) (enzyme)”, the binding result in assay [1] and in assay [2] was “binds” each time.
In the case of “UvChi1 (35S-UvChi1, expressed in Nicotiana benthamiana) (Ustilaginoidea virens) (enzyme)”, the binding result in assay [3] and in assay [4] was “binds” throughout.
For “MBP-UvChi1^mcb (mutated at chitin binding sites) (Ustilaginoidea virens) (enzyme)”, the binding result in assay [1] and in assay [2] was “binds” in each case.
